Assay results as given in doi:10.1101/2025.10.30.684516.
Results are given in words; binding and its absence hold for the method and conditions named. Binding seen in cells or lysates may run through a third protein. These calls come from enrichment with a bait or labelling near it, and not all partners need be listed.

Chains of the proteins cited; added tags and fusions are not shown.
UniProt P08670: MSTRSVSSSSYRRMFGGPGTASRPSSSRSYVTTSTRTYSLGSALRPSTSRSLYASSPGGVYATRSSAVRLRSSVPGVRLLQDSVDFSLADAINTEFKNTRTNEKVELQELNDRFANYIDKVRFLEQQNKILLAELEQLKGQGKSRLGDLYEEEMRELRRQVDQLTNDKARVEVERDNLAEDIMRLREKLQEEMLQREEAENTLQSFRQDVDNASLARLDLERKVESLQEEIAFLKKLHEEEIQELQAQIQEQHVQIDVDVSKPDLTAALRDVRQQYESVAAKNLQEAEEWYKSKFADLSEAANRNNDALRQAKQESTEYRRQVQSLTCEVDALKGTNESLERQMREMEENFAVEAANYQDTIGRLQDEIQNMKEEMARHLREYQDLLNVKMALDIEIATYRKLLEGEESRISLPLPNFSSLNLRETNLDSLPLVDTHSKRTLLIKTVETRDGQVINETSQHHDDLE

B1: RBM3 (protein, UniProt P98179 1-157)
chain: MSSEEGKLFVGGLNFNTDEQALEDHFSSFGPISEVVVVKDRETQRSRGFGFITFTNPEHASVAMRAMNGESLDGRQIRVDHAGKSARGTRGGGFGAHGRGRSYSRGGGDQGYGSGRYYDSRPGGYGYGYGRSRDYNGRNQGGYDRYSGGNYRDNYDN
B2: PDCD4 (protein, UniProt Q53EL6 1-469)
chain: MDVENEQILNVNPADPDNLSDSLFSGDEENAGTEEIKNEINGNWISASSINEARINAKAKRRLRKNSSRDSGRGDSVSDSGSDALRSGLTVPTSPKGRLLDRRSRSGKGRGLPKKGGAGGKGVWGTPGQVYDVEEVDVKDPNYDDDQENCVYETVVLPLDERAFEKTLTPIIQEYFEHGDTNEVAEMLRDLNLGEMKSGVPVLAVSLALEGKASHREMTSKLLSDLCGTVMSTTDVEKSFDKLLKDLPELALDTPRAPQLVGQFIARAVGDGILCNTYIDSYKGTVDCVQARAALDKATVLLSMSKGGKRKDSVWGSGGGQQSVNHLVKEIDMLLKEYLLSGDISEAEHCLKELEVPHFHHELVYEAIIMVLESTGESTFKMILDLLKSLWKSSTITVDQMKRGYERIYNEIPDINLDVPHSYSVLERFVEECFQAGIISKQLRDLCPSRGRKRFVSEGDGGRLKPESY
B3: HMGB3 (protein, UniProt O15347 1-200)
chain: MAKGDPKKPKGKMSAYAFFVQTCREEHKKKNPEVPVNFAEFSKKCSERWKTMSGKEKSKFDEMAKADKVRYDREMKDYGPAKGGKKKKDPNAPKRPPSGFFLFCSEFRPKIKSTNPGISIGDVAKKLGEMWNNLNDSEKQPYITKAAKLKEKYEKDVADYKSKGKFDGAKGPAKVARKKVEEEDEEEEEEEEEEEEEEDE
B4: DUSP1 (Dual-specificity phosphatase 1) (protein, UniProt P28562 1-367)
chain: MVMEVGTLDAGGLRALLGERAAQCLLLDCRSFFAFNAGHIAGSVNVRFSTIVRRRAKGAMGLEHIVPNAELRGRLLAGAYHAVVLLDERSAALDGAKRDGTLALAAGALCREARAAQVFFLKGGYEAFSASCPELCSKQSTPMGLSLPLSTSVPDSAESGCSSCSTPLYDQGGPVEILPFLYLGSAYHASRKDMLDALGITALINVSANCPNHFEGHYQYKSIPVEDNHKADISSWFNEAIDFIDSIKNAGGRVFVHCQAGISRSATICLAYLMRTNRVKLDEAFEFVKQRRSIISPNFSFMGQLLQFESQVLAPHCSAEAGSPAMAVLDRGTSTTTVFNFPVSIPVHSTNSALSYLQSPITTSPSC
B5: AK1 (protein, UniProt P00568 1-194)
chain: MEEKLKKTKIIFVVGGPGSGKGTQCEKIVQKYGYTHLSTGDLLRSEVSSGSARGKKLSEIMEKGQLVPLETVLDMLRDAMVAKVNTSKGFLIDGYPREVQQGEEFERRIGQPTLLLYVDAGPETMTQRLLKRGETSGRVDDNEETIKKRLETYYKATEPVIAFYEKRGIVRKVNAEGSVDSVFSQVCTHLDALK
B6: SNW1 (protein, UniProt Q13573 1-536)
chain: MALTSFLPAPTQLSQDQLEAEEKARSQRSRQTSLVSSRREPPPYGYRKGWIPRLLEDFGDGGAFPEIHVAQYPLDMGRKKKMSNALAIQVDSEGKIKYDAIARQGQSKDKVIYSKYTDLVPKEVMNADDPDLQRPDEEAIKEITEKTRVALEKSVSQKVAAAMPVRAADKLAPAQYIRYTPSQQGVAFNSGAKQRVIRMVEMQKDPMEPPRFKINKKIPRGPPSPPAPVMHSPSRKMTVKEQQEWKIPPCISNWKNAKGYTIPLDKRLAADGRGLQTVHINENFAKLAEALYIADRKAREAVEMRAQVERKMAQKEKEKHEEKLREMAQKARERRAGIKTHVEKEDGEARERDEIRHDRRKERQHDRNLSRAAPDKRSKLQRNENRDISEVIALGVPNPRTSNEVQYDQRLFNQSKGMDSGFAGGEDEIYNVYDQAWRGGKDMAQSIYRPSKNLDKDMYGDDLEARIKTNRFVPDKEFSGSDRRQRGREGPVQFEEDPFGLDKFLEEAKQHGGSKRPSDSSRPKEHEHEGKKRRKE
B7: RAB23 (protein, UniProt Q9ULC3 1-237)
chain: MLEEDMEVAIKMVVVGNGAVGKSSMIQRYCKGIFTKDYKKTIGVDFLERQIQVNDEDVRLMLWDTAGQEEFDAITKAYYRGAQACVLVFSTTDRESFEAVSSWREKVVAEVGDIPTVLVQNKIDLLDDSCIKNEEAEALAKRLKLRFYRTSVKEDLNVNEVFKYLAEKYLQKLKQQIAEDPELTHSSSNKIGVFNTSGGSHSGQNSGTLNGGDVINLRPNKQRTKKNRNPFSSCSIP
B8: TXNL1 (protein, UniProt O43396 1-289)
chain: MVGVKPVGSDPDFQPELSGAGSRLAVVKFTMRGCGPCLRIAPAFSSMSNKYPQAVFLEVDVHQCQGTAATNNISATPTFLFFRNKVRIDQYQGADAVGLEEKIKQHLENDPGSNEDTDIPKGYMDLMPFINKAGCECLNESDEHGFDNCLRKDTTFLESDCDEQLLITVAFNQPVKLYSMKFQGPDNGQGPKYVKIFINLPRSMDFEEAERSEPTQALELTEDDIKEDGIVPLRYVKFQNVNSVTIFVQSNQGEEETTRISYFTFIGTPVQATNMNDFKRVVGKKGESH
B9: HCCS (protein, UniProt P53701 1-268)
chain: MGLSPSAPAVAVQASNASASPPSGCPMHEGKMKGCPVNTEPSGPTCEKKTYSVPAHQERAYEYVECPIRGTAAENKENLDPSNLMPPPNQTPAPDQPFALSTVREESSIPRADSEKKWVYPSEQMFWNAMLKKGWKWKDEDISQKDMYNIIRIHNQNNEQAWKEILKWEALHAAECPCGPSLIRFGGKAKEYSPRARIRSWMGYELPFDRHDWIINRCGTEVRYVIDYYDGGEVNKDYQFTILDVRPALDSLSAVWDRMKVAWWRWTS
B10: AKR1C3 (protein, UniProt P42330 1-323)
chain: MDSKHQCVKLNDGHFMPVLGFGTYAPPEVPRSKALEVTKLAIEAGFRHIDSAHLYNNEEQVGLAIRSKIADGSVKREDIFYTSKLWSTFHRPELVRPALENSLKKAQLDYVDLYLIHSPMSLKPGEELSPTDENGKVIFDIVDLCTTWEAMEKCKDAGLAKSIGVSNFNRRQLEMILNKPGLKYKPVCNQVECHPYFNRSKLLDFCKSKDIVLVAYSALGSQRDKRWVDPNSPVLLEDPVLCALAKKHKRTPALIALRYQLQRGVVVLAKSYNEQRIRQNVQVFEFQLTAEDMKAIDGLDRNLHYFNSDSFASHPNYPYSDEY
B11: PRPS2 (protein, UniProt P11908 1-318)
chain: MPNIVLFSGSSHQDLSQRVADRLGLELGKVVTKKFSNQETSVEIGESVRGEDVYIIQSGCGEINDNLMELLIMINACKIASSSRVTAVIPCFPYARQDKKDKSRAPISAKLVANMLSVAGADHIITMDLHASQIQGFFDIPVDNLYAEPAVLQWIRENIAEWKNCIIVSPDAGGAKRVTSIADRLNVEFALIHKERKKANEVDRMVLVGDVKDRVAILVDDMADTCGTICHAADKLLSAGATKVYAILTHGIFSGPAISRINNAAFEAVVVTNTIPQEDKMKHCTKIQVIDISMILAEAIRRTHNGESVSYLFSHVPL
B12: BANF1 (protein, UniProt O75531 1-89)
chain: MTTSQKHRDFVAEPMGEKPVGSLAGIGEVLGKKLEERGFDKAYVVLGQFLVLKKDEDLFREWLKDTCGANAKQSRDCFGCLREWCDAFL
B13: EXOG (protein, UniProt Q9Y2C4 42-368)
chain: QGAEGALTGKQPDGSAEKAVLEQFGFPLTGTEARCYTNHALSYDQAKRVPRWVLEHISKSKIMGDADRKHCKFKPDPNIPPTFSAFNEDYVGSGWSRGHMAPAGNNKFSSKAMAETFYLSNIVPQDFDNNSGYWNRIEMYCRELTERFEDVWVVSGPLTLPQTRGDGKKIVSYQVIGEDNVAVPSHLYKVILARRSSVSTEPLALGAFVVPNEAIGFQPQLTEFQVSLQDLEKLSGLVFFPHLDRTSDIRNICSVDTCKLLDFQEFTLYLSTRKIEGARSVLRLEKIMENLKNAEIEPDDYFMSRYEKKLEELKAKEQSGTQIRKPS
B14: RAB32 (protein, UniProt Q13637 1-225)
chain: MAGGGAGDPGLGAAAAPAPETREHLFKVLVIGELGVGKTSIIKRYVHQLFSQHYRATIGVDFALKVLNWDSRTLVRLQLWDIAGQERFGNMTRVYYKEAVGAFVVFDISRSSTFEAVLKWKSDLDSKVHLPNGSPIPAVLLANKCDQNKDSSQSPSQVDQFCKEHGFAGWFETSAKDNINIEEAARFLVEKILVNHQSFPNEENDVDKIKLDQETLRAENKSQCC
B15: EDIL3 (protein, UniProt O43854 24-480)
chain: DICDPNPCENGGICLPGLADGSFSCECPDGFTDPNCSSVVEVASDEEEPTSAGPCTPNPCHNGGTCEISEAYRGDTFIGYVCKCPRGFNGIHCQHNINECEVEPCKNGGICTDLVANYSCECPGEFMGRNCQYKCSGPLGIEGGIISNQQITASSTHRALFGLQKWYPYYARLNKKGLINAWTAAENDRWPWIQINLQRKMRVTGVITQGAKRIGSPEYIKSYKIAYSNDGKTWAMYKVKGTNEDMVFRGNIDNNTPYANSFTPPIKAQYVRLYPQVCRRHCTLRMELLGCELSGCSEPLGMKSGHIQDYQITASSIFRTLNMDMFTWEPRKARLDKQGKVNAWTSGHNDQSQWLQVDLLVPTKVTGIITQGAKDFGHVQFVGSYKLAYSNDGEHWTVYQDEKQRKDKVFQGNFDNDTHRKNVIDPPIYARHIRILPWSWYGRITLRSELLGCTEEE

biological target: VIM-APEX2-GFP (UniProt P08670); test: proximity labelling

Row | binding | Binder
1 | binds | B1
2 | binds | B2
3 | binds | B3
4 | binds | B4
5 | binds | B5
6 | binds | B6
7 | binds | B7
8 | binds | B8
9 | binds | B9
10 | binds | B10
11 | binds | B11
12 | binds | B12
13 | binds | B13
14 | binds | B14
15 | binds | B15
